Results deposited as PubChem BioAssay AID1671195 (Yale University, 2021).

- Aim: 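Genes whose knockdown alters LDL uptake in liver cancer cells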 (primary screen)
- Cell system: human Huh7 hepatoma cells
- Reagents: siRNA pool against human genes, 18 nM
- Duration: about 2 to 2.5 days of knockdown, then 8 h LDL uptake
- Challenge: DiI-labelled LDL at 30 µg/ml for 8 h, in lipoprotein-deficient serum medium
- Measured: 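Fluorescent LDL signal imaged in cells, scaled to the plate median, robust z-score for each replicate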
- Scale: robust z-score: higher = more LDL uptake after knockdown
- Rule for the call: 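Active when two or more replicates show a robust z-score above 2 or below -2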
The whole screen tested about 22,000 reagents; shown is a part drawn at random. Of all reagents, about 1,510 (6.9%) got an active call. 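Active includes knockdowns raising or lowering LDL uptake; positive z-scores mean more uptake, negative mean less.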 A number with no mark means an inactive call.

no.	target	robust z-score, replicate 1	robust z-score, replicate 2	robust z-score, replicate 3
1	KIAA0232	-0.281	-0.313	0.66
2	CXorf65	-1.08	-0.928	-0.889
3	COQ6	-1.2	-1.35	-1.38
4	C5orf47	3.31 (active)	2.66	0.81
5	DNAJB11	-0.00364	0.294	0.375
6	RTN4RL2	-0.573	0.257	0.402
7	HSPH1	0.717	1	0.67
8	SPOCK3	-0.464	0.667	-0.31
9	LOC401052 (retired record)	-0.361	-0.233	-0.243
10	SLCO3A1	-0.976	-1.13	-0.832
11	DDN	-1.51	-1.26	-1.69
12	ZNF691	0.475	-0.0147	0.0891
13	GBP1	-1.34	-1.28	-1.25
14	PLP1	0.772	-0.0479	0.851
15	NRIP2	1.57	0.478	1.49
16	NAV2-AS5	0.602	0.426	0.487
17	EXOC8	-2.07	-0.945	-1.57
18	VASH1	1.81	-0.163	1.38
19	NDRG1	0.113	1.91	1.5
20	FGF14-IT1	1.5	1.44	1.42
21	EIPR1	2.62	-0.472	1.01
22	AMHR2	-1.02	-0.571	-0.176
23	ICAM2	2.45	1.6	0.633
24	OPALIN	1.57 (active)	2.45	2.03
25	ANK2	-0.112	0.636	1.83
26	RHNO1	0.719	0.731	1.47
27	C3orf22	-0.588	-0.214	-0.532
28	MYL4	1.15	1.98	0.391
29	CLDN8	-0.897	-0.503	-0.613
30	SULT1C4	-0.588	-0.712	-0.499
31	ADPGK	0.383	0.236	0.89
32	MND1	-0.933	-1.03	-0.472
33	CNPY1	-0.383	0.12	-0.0368
34	LSP1	-0.49	-0.113	-0.481
35	PREB	-2.02 (active)	-2.47	-2.46
36	RIDA	-0.528	-1.52	-0.877
37	MTSS1	-1.21	-1.07	0.45
38	H3C3	1.73	-0.246	0.562
39	RRAGA	1.77	-0.505	0.805
40	IDNK	0.81	1.1	1.18
41	DYNC1LI1	1.49	1.09	2.94
42	ABCC1	3.12 (active)	2.55	0.809
43	LOC440526 (retired record)	-0.366	-0.956	-0.695
44	LOC442278 (retired record)	0.604	0.164	-0.245
45	HAP1	0.249	-0.323	-0.971
46	RFC1	-0.586	0.652	-0.416
47	YPEL4	-0.0353	0.0738	-0.287
48	KCNMA1	2.34 (active)	1.24	2.2

Ordered by “robust z-score, replicate 2” (high to low): some entries from above
target	robust z-score, replicate 1	robust z-score, replicate 2	robust z-score, replicate 3
NRIP2	1.57	0.478	1.49
NAV2-AS5	0.602	0.426	0.487
ZNF691	0.475	-0.0147	0.0891
PLP1	0.772	-0.0479	0.851
EXOC8	-2.07	-0.945	-1.57
DDN	-1.51	-1.26	-1.69
GBP1	-1.34	-1.28	-1.25

Further results follow.
no.	target	robust z-score, replicate 1	robust z-score, replicate 2	robust z-score, replicate 3
49	E2F6	4.44 (active)	4.24	1.68
50	PLEKHA8	-0.783	-0.922	-1.04
51	GSTA1	-1.41	0.0655	-1.65
52	LILRB5	2.22	0.31	1.39
53	PRKAB2	0.185	1.29	1.95
54	PARP11	-0.296	-0.81	-0.586
55	BCL7A	-0.713	-1.72	-0.134
56	LOC440982	-0.273	-0.0462	0.0197
57	TMEM247	0.839	1.67	1.24
58	PTPN2	-0.216	-0.548	-0.459
59	RECK	-0.983	0.0367	-1.16
60	ARID5A	-0.687	-0.609	-0.155
61	KLF16	-1.57	-1.88	-1.77
62	LOC441616 (retired record)	0.591	1.18	0.99
63	RASSF5	0.789	1.67	1.55
64	TNFRSF8	0.488	0.648	0.377
65	FAM151B	0.0595	-0.237	-0.484
66	FLYWCH2	0.595	0.681	0.669
67	LINC02908	-1.58	-1.7	-1.3
68	PROK2	-0.503	0.247	-0.308
69	DNAAF8	-1.48	-0.901	-1.46
70	SRRT	-0.386	-2.15	-0.757
71	LINC00879	0.646	0.997	1.21
72	ZNF781	1.91 (active)	1.75	2.54
73	POLR1A	0.367	0.497	-0.108
74	SERPINB4	0.141	-0.493	0.579
75	GRIA3	-1.29	-0.306	-2.08
76	LOC388134 (retired record)	0.44	1.17	0.687
77	IFNA10	0.00893	-0.261	0.557
78	LINC01000	1.42	1.52	2.9
79	MUC4	2.7 (active)	2.66	2.1
80	MXD4	-0.45	-0.359	-0.091
81	ADAP2	0.145	0.0941	-0.143
82	IDO2	-0.594	-0.555	-0.619
83	UHRF1	-0.247	-0.45	-0.277
84	SYVN1	-0.193	-0.0779	-0.0568
85	BLK	-0.887	-1.45	-1.12
86	ZKSCAN8	-0.271	-0.628	-0.452
87	PLCZ1	-1.46	-1.06	-2.36
